Earlier results as cited in patent US20070275095A1, “TREATMENT OF INFLAMMATORY, AUTOIMMUNE, OR OTHER DISORDERS, USING AGENTS THAT REDUCE THE SEQUESTERING OF ZINC BY CALPROTECTIN” (priority 2005, published 2007).
For at least one compound, name, drawing or mass did not settle the structure.

Columns and labels:
calprotectin = settings: Oyama et al 1997
neutrophil cells = settings: Oyama et al 1997

In the case of `O=C(O)c1cc(=O)c2c(OCC(O)COc3cccc4oc(C(=O)O)cc(=O)c34)cccc2o1` [cromolyn], the “binding to calprotectin molecules in neutrophils” value (calprotectin) is given as “bind to calprotectin molecules contained in the neutrophils” and the “suppression of calprotectin release by neutrophils” value (neutrophil cells) is given as “impedes and suppresses the release of calprotectin by the neutrophils”.
